From the supplement of paper PMC12823440, “Inhibitors supercharge kinase turnover through native proteolytic circuits” (Nature, 2025)
Counter-ions that a name gives are not always drawn. Some of the results follow. Hit calls seldom repeat between salt and free forms of one compound.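 Kinases, fused to nanoluciferase, were expressed in K562 cells; luminescence was measured every 4 h from 2 to 18 h as percent of control (DMSO = 100%, positive control = 0%). A time point is decreased if signal falls significantly (2 sigma). Hits were called by the authors by a rule that is not shown; the count of time points alone does not decide it.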

Protein sequences, listed by entry. Tags and fused reporters are not part of them. Lines headed by an entry give the natural chain unless they say otherwise; changes in a name come on top.
UniProt P29317, whole entry: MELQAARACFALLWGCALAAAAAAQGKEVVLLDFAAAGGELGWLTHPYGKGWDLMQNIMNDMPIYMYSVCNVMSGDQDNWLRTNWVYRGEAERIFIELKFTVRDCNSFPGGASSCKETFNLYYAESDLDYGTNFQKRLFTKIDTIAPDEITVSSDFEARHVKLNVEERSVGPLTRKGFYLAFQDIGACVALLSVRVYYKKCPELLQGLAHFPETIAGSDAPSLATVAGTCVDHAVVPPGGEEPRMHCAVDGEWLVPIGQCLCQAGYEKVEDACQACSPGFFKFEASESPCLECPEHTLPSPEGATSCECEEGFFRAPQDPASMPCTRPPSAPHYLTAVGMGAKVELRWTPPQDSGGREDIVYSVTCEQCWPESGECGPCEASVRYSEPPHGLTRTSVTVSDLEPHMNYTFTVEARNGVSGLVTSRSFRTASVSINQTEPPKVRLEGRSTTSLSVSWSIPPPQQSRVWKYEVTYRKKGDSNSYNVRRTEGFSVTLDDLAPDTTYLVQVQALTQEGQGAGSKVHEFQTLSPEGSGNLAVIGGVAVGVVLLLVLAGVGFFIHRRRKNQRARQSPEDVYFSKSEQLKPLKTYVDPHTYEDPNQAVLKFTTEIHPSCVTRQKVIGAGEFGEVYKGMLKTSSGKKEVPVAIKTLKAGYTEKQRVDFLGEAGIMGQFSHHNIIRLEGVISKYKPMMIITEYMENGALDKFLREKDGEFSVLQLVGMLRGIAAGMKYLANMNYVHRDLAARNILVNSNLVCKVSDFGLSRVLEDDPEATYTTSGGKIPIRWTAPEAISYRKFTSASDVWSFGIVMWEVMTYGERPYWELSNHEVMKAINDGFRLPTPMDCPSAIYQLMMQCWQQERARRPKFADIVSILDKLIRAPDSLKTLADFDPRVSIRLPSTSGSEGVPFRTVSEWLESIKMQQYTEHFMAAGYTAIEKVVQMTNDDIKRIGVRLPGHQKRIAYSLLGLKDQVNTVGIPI
UniProt P22607, whole entry, looked up: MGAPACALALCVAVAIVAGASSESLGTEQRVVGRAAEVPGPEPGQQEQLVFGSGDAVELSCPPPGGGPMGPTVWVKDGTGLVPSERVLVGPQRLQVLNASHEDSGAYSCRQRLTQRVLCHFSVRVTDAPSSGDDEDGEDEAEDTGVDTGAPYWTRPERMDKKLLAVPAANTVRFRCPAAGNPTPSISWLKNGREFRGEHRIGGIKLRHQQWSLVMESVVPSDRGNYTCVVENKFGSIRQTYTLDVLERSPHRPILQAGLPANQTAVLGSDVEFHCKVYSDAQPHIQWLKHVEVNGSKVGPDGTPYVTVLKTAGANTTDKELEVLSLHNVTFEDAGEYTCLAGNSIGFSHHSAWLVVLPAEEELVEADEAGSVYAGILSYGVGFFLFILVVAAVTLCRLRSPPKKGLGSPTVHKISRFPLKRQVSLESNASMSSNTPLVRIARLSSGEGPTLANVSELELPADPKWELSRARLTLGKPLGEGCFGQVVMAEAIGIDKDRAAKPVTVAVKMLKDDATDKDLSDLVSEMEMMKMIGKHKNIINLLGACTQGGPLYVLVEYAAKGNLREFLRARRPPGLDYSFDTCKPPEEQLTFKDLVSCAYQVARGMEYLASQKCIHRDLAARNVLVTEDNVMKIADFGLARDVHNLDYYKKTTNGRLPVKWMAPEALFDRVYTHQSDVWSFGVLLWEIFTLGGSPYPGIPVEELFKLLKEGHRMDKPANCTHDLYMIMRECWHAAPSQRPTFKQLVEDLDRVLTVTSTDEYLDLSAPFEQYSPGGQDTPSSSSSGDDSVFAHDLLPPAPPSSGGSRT
UniProt P06241, whole entry, looked up: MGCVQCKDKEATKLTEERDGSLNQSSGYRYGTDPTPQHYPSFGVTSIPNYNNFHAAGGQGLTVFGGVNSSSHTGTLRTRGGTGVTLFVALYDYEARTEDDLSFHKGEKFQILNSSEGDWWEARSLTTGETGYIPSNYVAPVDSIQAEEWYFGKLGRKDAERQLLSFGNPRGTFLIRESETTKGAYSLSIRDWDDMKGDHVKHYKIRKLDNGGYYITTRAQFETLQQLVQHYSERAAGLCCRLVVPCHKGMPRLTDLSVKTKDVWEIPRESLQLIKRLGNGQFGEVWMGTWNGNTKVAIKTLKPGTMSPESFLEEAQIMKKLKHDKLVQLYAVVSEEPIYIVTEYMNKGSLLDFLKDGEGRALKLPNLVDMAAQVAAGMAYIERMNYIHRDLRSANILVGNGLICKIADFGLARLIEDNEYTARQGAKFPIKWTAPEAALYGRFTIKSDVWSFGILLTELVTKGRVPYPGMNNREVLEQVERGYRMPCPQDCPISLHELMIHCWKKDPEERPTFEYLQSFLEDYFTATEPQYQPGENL
UniProt P49840: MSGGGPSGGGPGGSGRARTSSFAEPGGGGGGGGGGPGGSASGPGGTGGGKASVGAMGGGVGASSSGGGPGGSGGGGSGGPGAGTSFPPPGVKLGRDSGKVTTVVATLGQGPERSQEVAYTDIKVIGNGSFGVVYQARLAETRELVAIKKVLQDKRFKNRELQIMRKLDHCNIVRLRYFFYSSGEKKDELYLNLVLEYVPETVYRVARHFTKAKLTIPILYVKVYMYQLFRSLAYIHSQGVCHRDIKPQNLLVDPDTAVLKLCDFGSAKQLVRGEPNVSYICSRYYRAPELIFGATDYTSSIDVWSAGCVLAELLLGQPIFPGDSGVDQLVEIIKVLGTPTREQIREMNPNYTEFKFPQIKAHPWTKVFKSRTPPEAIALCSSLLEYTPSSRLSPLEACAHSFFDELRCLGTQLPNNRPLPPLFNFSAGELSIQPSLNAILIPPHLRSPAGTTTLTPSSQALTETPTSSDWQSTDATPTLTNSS
UniProt P14616: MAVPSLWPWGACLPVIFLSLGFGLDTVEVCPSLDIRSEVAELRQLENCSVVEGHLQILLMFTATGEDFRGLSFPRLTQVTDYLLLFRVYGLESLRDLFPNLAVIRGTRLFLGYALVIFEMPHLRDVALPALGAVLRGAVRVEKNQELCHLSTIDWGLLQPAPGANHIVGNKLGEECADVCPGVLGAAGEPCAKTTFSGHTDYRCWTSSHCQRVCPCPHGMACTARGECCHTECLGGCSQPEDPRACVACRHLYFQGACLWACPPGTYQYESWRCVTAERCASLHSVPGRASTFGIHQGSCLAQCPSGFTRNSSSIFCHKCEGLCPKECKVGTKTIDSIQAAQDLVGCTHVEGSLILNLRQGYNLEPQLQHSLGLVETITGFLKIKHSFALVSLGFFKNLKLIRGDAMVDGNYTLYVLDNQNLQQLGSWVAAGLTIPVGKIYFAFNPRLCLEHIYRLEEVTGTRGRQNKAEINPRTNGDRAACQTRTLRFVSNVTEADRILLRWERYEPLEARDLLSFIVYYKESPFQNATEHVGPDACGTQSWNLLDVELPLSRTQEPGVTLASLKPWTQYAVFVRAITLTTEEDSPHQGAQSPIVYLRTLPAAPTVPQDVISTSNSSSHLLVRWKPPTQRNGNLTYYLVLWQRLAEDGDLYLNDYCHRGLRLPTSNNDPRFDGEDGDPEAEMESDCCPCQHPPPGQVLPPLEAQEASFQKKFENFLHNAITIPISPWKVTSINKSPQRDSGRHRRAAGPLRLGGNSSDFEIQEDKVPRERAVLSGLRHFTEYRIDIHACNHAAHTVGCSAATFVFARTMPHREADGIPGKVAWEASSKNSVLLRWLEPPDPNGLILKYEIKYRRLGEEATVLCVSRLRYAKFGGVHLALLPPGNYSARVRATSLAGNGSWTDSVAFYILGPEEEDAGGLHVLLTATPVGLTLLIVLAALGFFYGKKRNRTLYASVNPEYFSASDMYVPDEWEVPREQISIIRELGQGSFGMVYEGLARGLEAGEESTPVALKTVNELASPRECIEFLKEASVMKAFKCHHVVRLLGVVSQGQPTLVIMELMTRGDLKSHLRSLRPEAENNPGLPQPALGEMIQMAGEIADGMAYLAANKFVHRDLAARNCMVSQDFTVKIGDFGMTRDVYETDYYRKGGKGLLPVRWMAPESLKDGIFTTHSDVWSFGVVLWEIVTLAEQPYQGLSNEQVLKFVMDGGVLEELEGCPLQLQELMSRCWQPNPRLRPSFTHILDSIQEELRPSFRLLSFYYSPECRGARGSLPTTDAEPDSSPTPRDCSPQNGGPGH
UniProt P23458: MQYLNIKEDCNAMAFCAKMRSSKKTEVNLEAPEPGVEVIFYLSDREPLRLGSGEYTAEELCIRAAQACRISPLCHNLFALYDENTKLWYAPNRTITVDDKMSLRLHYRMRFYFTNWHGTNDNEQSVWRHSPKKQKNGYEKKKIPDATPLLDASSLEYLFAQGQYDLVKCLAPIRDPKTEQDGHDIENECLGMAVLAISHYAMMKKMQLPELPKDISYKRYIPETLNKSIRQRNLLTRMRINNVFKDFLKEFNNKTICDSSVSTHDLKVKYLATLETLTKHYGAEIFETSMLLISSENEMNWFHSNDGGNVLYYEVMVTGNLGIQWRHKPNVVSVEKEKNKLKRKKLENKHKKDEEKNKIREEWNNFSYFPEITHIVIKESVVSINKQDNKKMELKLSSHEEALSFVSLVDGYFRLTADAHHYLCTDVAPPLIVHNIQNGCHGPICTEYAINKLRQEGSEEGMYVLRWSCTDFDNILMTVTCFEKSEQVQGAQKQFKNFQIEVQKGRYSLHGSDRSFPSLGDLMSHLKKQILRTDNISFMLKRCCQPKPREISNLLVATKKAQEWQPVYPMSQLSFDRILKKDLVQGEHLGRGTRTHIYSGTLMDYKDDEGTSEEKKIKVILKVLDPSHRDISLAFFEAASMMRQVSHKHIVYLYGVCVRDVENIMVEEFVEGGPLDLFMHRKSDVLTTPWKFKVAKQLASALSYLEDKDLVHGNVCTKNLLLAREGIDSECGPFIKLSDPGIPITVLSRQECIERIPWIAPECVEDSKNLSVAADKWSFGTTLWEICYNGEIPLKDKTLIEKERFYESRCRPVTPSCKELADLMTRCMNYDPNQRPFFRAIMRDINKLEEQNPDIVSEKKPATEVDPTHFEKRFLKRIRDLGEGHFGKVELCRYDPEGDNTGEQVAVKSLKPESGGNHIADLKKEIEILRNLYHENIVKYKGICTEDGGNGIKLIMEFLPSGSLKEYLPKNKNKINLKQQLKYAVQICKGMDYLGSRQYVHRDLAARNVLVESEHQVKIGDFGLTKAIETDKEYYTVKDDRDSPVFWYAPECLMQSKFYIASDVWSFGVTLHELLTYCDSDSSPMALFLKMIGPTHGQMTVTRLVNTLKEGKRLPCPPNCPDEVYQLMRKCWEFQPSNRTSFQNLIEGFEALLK
UniProt P06239: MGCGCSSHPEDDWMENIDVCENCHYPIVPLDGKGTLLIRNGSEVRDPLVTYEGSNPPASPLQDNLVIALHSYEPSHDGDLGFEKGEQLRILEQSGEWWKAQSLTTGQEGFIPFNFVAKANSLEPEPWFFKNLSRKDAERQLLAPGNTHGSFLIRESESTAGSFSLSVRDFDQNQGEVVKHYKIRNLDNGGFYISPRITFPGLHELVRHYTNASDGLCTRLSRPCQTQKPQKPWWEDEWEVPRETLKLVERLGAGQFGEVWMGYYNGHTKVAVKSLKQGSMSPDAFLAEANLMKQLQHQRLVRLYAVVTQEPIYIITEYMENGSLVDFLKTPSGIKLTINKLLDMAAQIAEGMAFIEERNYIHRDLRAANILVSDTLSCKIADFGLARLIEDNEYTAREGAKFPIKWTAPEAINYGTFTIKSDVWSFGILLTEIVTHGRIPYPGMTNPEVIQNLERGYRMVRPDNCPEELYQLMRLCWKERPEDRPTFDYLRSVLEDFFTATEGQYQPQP
UniProt P21802, whole entry, looked up: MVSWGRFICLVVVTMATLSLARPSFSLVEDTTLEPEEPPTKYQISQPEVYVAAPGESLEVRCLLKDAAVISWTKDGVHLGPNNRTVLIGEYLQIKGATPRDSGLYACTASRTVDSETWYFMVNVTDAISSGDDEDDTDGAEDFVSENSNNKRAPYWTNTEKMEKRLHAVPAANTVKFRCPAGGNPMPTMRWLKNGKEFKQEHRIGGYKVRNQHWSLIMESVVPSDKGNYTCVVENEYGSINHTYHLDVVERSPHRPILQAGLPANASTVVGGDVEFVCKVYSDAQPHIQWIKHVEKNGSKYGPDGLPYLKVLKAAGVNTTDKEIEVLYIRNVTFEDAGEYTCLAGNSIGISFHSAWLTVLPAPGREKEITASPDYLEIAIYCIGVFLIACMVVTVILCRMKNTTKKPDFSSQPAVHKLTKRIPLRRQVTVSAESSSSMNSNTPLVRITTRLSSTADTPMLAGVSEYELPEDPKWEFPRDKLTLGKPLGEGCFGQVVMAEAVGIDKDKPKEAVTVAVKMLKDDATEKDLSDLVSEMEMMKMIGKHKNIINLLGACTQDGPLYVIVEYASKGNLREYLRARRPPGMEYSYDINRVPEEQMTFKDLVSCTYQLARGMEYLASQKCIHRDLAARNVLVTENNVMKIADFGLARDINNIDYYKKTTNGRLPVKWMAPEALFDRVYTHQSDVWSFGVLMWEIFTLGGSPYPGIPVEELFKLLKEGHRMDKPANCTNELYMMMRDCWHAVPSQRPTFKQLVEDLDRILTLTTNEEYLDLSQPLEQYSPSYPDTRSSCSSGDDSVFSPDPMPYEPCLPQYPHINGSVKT

Experiments:
Assay in all cases: number of time points (of 5) at which kinase-Nluc abundance scored as decreased, DMSO-normalised (count); higher = more persistent destabilization
Settings in all cases: K562; 2-18 h
EGFR_L861Q = EGFR_L861Q (UniProt P00533)
EGFR_T790M = EGFR_T790M (UniProt P00533)
EPHA2 = EPHA2 (UniProt P29317)
ERBB3 = ERBB3 (UniProt P21860)
[1] = biological target: ERBB4_R711C (clone: ERBB4_mut) (UniProt Q15303)
ERN1 = ERN1 (UniProt O75460)
FGFR3 = FGFR3 (UniProt P22607)
FGR = FGR (UniProt P09769)
FLT3 = FLT3 (UniProt P36888)
FYN = FYN (UniProt P06241)
GSK3A = GSK3A (UniProt P49840)
HER2 = HER2 (UniProt P04626)
INSRR = INSRR (UniProt P14616)
IRAK3 = IRAK3 (UniProt Q9Y616)
JAK1 = JAK1 (UniProt P23458)
LCK = LCK (UniProt P06239)
LIMK1 = LIMK1 (UniProt P53667)
LIMK2 = LIMK2 (UniProt P53671)
FGFR1 = FGFR1 (UniProt P11362)
FGFR2 = FGFR2 (UniProt P21802)

SMILES	number of time points (EGFR_L861Q)	number of time points (EGFR_T790M)	number of time points (EPHA2)	number of time points (ERBB3)	number of time points [1]	number of time points (ERN1)	number of time points (FGFR3)	number of time points (FGR)	number of time points (FLT3)	number of time points (FYN)	number of time points (GSK3A)	number of time points (HER2)	number of time points (INSRR)	number of time points (IRAK3)	number of time points (JAK1)	number of time points (LCK)	number of time points (LIMK1)	number of time points (LIMK2)	number of time points (FGFR1)	number of time points (FGFR2)
CCN1C(=O)N(c2c(F)c(OC)cc(OC)c2F)Cc2cnc3[nH]c(CN4CCOCC4)cc3c21 [Pemigatinib] (10 µM)	0	0	0	0	0	0	0	0	0	0	0	0	0	0	0	0	0	0		
Cc1ccc(S(=O)(=O)Nc2nc3ccccc3nc2Nc2ccc3nsnc3c2)cc1 [Pilaralisib analogue] (10 µM)	0		0	5	5	1	0	0	5	0	0	1	4	4	4	1		0	0	0
CCC(=O)N1CCN(c2ccc(-n3c(=O)ccc4cnc5ccc(-c6cnc7ccccc7c6)cc5c43)cc2C(F)(F)F)CC1 [Torin 1] (2 µM)	0		0	0	0	0	0	0	0	0	0	0	0	0	0	0	0	0	4	5
COCCNCCc1cccc(Nc2ncc3c(n2)-c2ccccc2[C@H](c2ccccc2F)C3)c1 [Derazantinib] (2.5 µM)	0	0	0	0	0	0	0	0	0	0	0	0	0	0	0	0	0	0		0
O=c1c(O)c(-c2ccc(O)c(O)c2)oc2cc(O)cc(O)c12 [Quercetin (dihydrate)] (10 µM)			0	0	0	0	0	0	0	0	0	0	0	0	0	0	0	0	0	0
O=C(c1ccc(-c2ccc(Cl)cc2)o1)N(Cc1ccccn1)c1ccc(N2CCNCC2)cc1 [MK2-IN-1 (hydrochloride)] (10 µM)	0	0	0	0		0	0	0	0	0	0	0	0	0	3	0	1	0	0	3
O=c1oc2c(C3OCCCO3)c(O)ccc2c2c1CNCC2 (10 µM)	0	0	0	0	0		0	0	0	0	0	0	0	0	0	0	0	0	0	0
COc1cc(CCc2cc(-c3nc4ccc(N5CCN(C)CC5)cc4[nH]3)n[nH]2)cc(OC)c1 (10 µM)	3	0	0	5	3	0		0		3	0	0	4	0	2	0	3	2		3
C=CC(=O)Nc1cccc(Nc2nc(Nc3ccc(OCCOC)cc3)ncc2F)c1 [Spebrutinib] (10 µM)	0	0	0	0	0		0	0	0	0	0	1	0	1	0	0	0	0	0	0
FC(F)(F)c1ccc(CNc2ccc(Cc3c[nH]c4ncc(Cl)cc34)cn2)cc1 (10 µM)	0		0	0	0	0	0	0	0	0	0	0	0	0	0	0	0	0	0	0
CC(C)(C)S(=O)(=O)c1cc2c(Nc3ccc4scnc4c3)ncnc2cc1OCCO (2.5 µM)	0	0	0	0	0		0	0	0	0	0	0	0	0	0	0	0	0	0	0
Cc1c[nH]c2ccccc12 [Skatole] (10 µM)	0		0	0	0	0	0	0	0	0	0	0	0	0	0	0	0	0	0	0
Cc1c[nH]c(/C=C2\C(=O)Nc3ccccc32)c1CCC(=O)O (10 µM)	0	0	0	0	0	0	0	0	0	0	0	0	0	0	0	0	0	0		0
CCCCOc1c(C(=O)c2c(F)cc(C)cc2F)c[nH]c2nncc1-2 (10 µM)	0		0	0	0	0	0	0	0	0	0	0	0	0	0	0	0	0	0	0
C/C=C(/C)C(=O)O[C@H]1Cc2cc3ccc(=O)oc3cc2OC1(C)C [Decursinol angelate] (10 µM)	0		0	0	0	0	0	0	0	0	0	0	0	0	0	0	0	0	0	0
O=C(O)CCNC(=O)c1ccc(/N=N/c2ccc(O)c(C(=O)O)c2)cc1 [Balsalazide] (10 µM)	0		0	0	0	0	0	0	0	0	0	0	0	0	0	0	0	0	0	0
O=c1cc(-c2ccccc2)oc2c(O)c(O)ccc12 [7,8-Dihydroxyflavone] (10 µM)	0	0	0	0	0		0	0	0	0	0	0	0	0	0	0	0	0	0	0
O=C1Cc2c([nH]c3ccc(Br)cc23)-c2ncccc2N1 [1-Azakenpaullone] (10 µM)			0	0	0	0	0	0	0	0	0	0	0	0	0	0	0	0	0	0
O=c1oc2c(O)c(O)cc3c(=O)oc4c(O)c(O)cc1c4c23 [Ellagic acid] (10 µM)			0	0	0	0	0	0	0	0	0	0	0	0	0	0	0	0	0	0
Cc1cc(C(=O)Nc2cccc(C(=O)Nc3cccc(C(F)(F)F)c3)c2)on1 (10 µM)	0		0	0	0	0	0	0	0	0	0	0	0	0	0	0			0	0
Cc1c(C(=O)N2CCOc3ccc(-c4ccc(N)nc4)cc3C2)ccc(S(C)(=O)=O)c1F (10 µM)			0	0	3	0	0	0	0	0	0	0	0	0	0	0	2	0	0	3
CNC(=O)c1cc(Oc2ccc(NC(=O)Nc3cc(C(C)(C)C)nn3-c3ccc4ncccc4c3)c(F)c2)ccn1 [Rebastinib] (2.5 µM)	0	2	0	4	4		2	0	3	4	0	2	3	3	3	0	5	3	4	4
C=CC(=O)N[C@H]1COC[C@H]1Nc1ncc2cc(-c3c(Cl)c(OC)cc(OC)c3Cl)c(=O)n(C)c2n1 (10 µM)	0	0	0	0	0	0	0	0	0	0	0	0	0	0	0	0	0	0	0	
O=C([O-])c1ccccc1O.[Na+] [Sodium Salicylate] (10 µM)	0		0	0	0	0	0	0	0	0	0	0	0	0	0	0	0	0	0	0
COc1nccc(-c2c(-c3ccc(F)cc3)ncn2C2CCC(O)CC2)n1 (stereo not drawn) (10 µM)			0	0	0	0	0	0	0	0	0	0	0	0	0		0	0	0	0

An excerpt from above in order of heavy-atom count, low to high.
SMILES	number of time points (EGFR_L861Q)	number of time points (EGFR_T790M)	number of time points (EPHA2)	number of time points (ERBB3)	number of time points [1]	number of time points (ERN1)	number of time points (FGFR3)	number of time points (FGR)	number of time points (FLT3)	number of time points (FYN)	number of time points (GSK3A)	number of time points (HER2)	number of time points (INSRR)	number of time points (IRAK3)	number of time points (JAK1)	number of time points (LCK)	number of time points (LIMK1)	number of time points (LIMK2)	number of time points (FGFR1)	number of time points (FGFR2)
O=C1Cc2c([nH]c3ccc(Br)cc23)-c2ncccc2N1 [1-Azakenpaullone] (10 µM)			0	0	0	0	0	0	0	0	0	0	0	0	0	0	0	0	0	0
C/C=C(/C)C(=O)O[C@H]1Cc2cc3ccc(=O)oc3cc2OC1(C)C [Decursinol angelate] (10 µM)	0		0	0	0	0	0	0	0	0	0	0	0	0	0	0	0	0	0	0
CCN1C(=O)N(c2c(F)c(OC)cc(OC)c2F)Cc2cnc3[nH]c(CN4CCOCC4)cc3c21 [Pemigatinib] (10 µM)	0	0	0	0	0	0	0	0	0	0	0	0	0	0	0	0	0	0		
